Drawing on PubChem BioAssay AID1347423 (Functional Genomics Laboratory (NCATS/FGL), 2020), this text covers z-score for 66 sequences.

Hit rate of the full screen: of about 52,000 sequences, about 210 (0.4%) were called active.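 The calls were made as follows: active = gene whose silencing raises cell survival under the drug, median off-target-corrected z-score across its silencing RNAs 2 or more; inactive = the rest.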 Some of the results follow.

The test is described as follows: Resistance to Poly (ADP-Ribose) Polymerase inhibitor: Gene Identification via Genome-wide siRNA Screen. The conditions noted are these: mouse BRCA2 R2336H ES cells, olaparib, CellTiter-Glo viability; stronger effect = higher value. In outline: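 Mouse BRCA2 R2336H ES cells were reverse-transfected with siRNA (20 nM final), treated at 48 h with 500 nM olaparib, and read by CellTiter-Glo after 72 h. Scores: MAD-based z per siRNA, median per gene, seed off-target correction.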
A general note: Cellular ATP, detected with luciferase, serves as a proxy for viable cell number.
Turning to “GGUUACUCUAAAGUCAAGUTT against 4921525L17Rik”, the z-score was inactive: 0.793.
In the case of “GGAAGAAAUGAUGAAUGACTT against 1500016L11Rik”, the z-score is inactive: 0.32.
As for GGAUCAGACUGUACGAGAGTT against Crygd, the z-score is inactive: -0.816.
On to GGAACUCUUCUAUUACAGATT against Sfxn4, for which the z-score is inactive: 0.145.
As to GCAAUUUAUGCCCUGCCUUTT against Fastk, the z-score was inactive: -0.896.
Consider CCUUGAAAAGUCUAAACGUTT against Tmod2, for which the z-score was inactive: 0.494.
As for GGUCCUUGCCAAAACAAUUTT against Crb1, the figure is inactive: -0.597.
For the sequence GGCUGUGUAAGAUUUGUUUTT against Hmgb1, the z-score was inactive: -0.309.
For “CCACAUCUAGAUUUUGACUTT against 5830418K08Rik”, the z-score is inactive: 0.16.
Consider GGUUAGAGUGCCUUUCCUUTT against Ctxn, for which the z-score is inactive: -1.37.
With CGGUAAACAUCAGUAAUGATT against Drd5 the figure was inactive: 0.412; with GGUUGCUGACAAAUGAAAGTT against BB219290, inactive: 1.99; with “GGCGAACACUGUCAUGAAUTT against 9630042H07Rik”, inactive: 1.42.
Turning to GCAUCCUCAGCCGUAUAUCTT against Ndufb9, the z-score is inactive: -0.253.
As for GGUCUUCUAUAUCCUGUGCTT against Fbxo6b, the z-score is inactive: 1.38.
For “GCAUCUCAGCUCUGAUUUATT against 2610306H15Rik”, the z-score is inactive: -0.101.
Consider “GGAAUUUCUCUUGGAAUUGTT against 0610013E23Rik”, for which the z-score is inactive: -0.339.
Consider “GCCUAAAACUGCUUUGUAATT against D7Ertd462e”, for which the z-score is inactive: -0.187.
As for GGGCAGGAGAAGGAUUCAUTT against Rit1, the figure is inactive: 1.74.
With GGAAUAAGGACAUAAAGAATT against Olfr415 the figure was inactive: 0.276; with CCAAUGCUUCUAGUUAACATT against Olfr155, inactive: 0.0629.
As for GCAUAAAAAACGAAUAGAGTT against Smc1l2, the figure is inactive: 0.436; as for GGGCUAAUAUACAGAAAUATT against Rrm2b, inactive: 1.13.
Take GGAAGAUUGUAACUGAUUATT against Cpa4: the z-score was inactive: 0.401.
As for GGUGAUGGAAGAAGAAGGCTT against Stk38, the figure is inactive: -1.23; as for GGAUGACUCGGAGAACUACTT against Psca, inactive: 0.643.
“GGAAAUCACAUUGUCCUGCTT against 3010003L21Rik”: the z-score was inactive: -0.743.
As for GGAAGUAGCUUAUUGUUCUTT against Polr2b, the z-score was inactive: -3.27.
With GCAAUAAGUUGACUGUGGATT against Zxda the figure was inactive: -0.649; with “GGGUAGUAACAAUUAGAUCTT against 2900041A09Rik”, inactive: 0.0344.
As for CCGGCUACUUCAUACCAGATT against Fxyd6, the figure is inactive: 0.913; as for GUACUUGAGGCAGAAGGCATT against Cyp3a11, inactive: -0.0219; as for “CGUUUCCAGAUUGCACCUUTT against 2610207P08Rik”, inactive: -0.692.
As for GCUGUUACUCAGCAGAGAGTT against Bach2, the z-score is inactive: -0.64.
As to CCUGUUGAGUGACCUAAGGTT against Gm962, the z-score is inactive: -0.4.
With GGCAACUGUGUGCUUGUGATT against Pla2g2d, the z-score was inactive: -1.82.
As for GGUUUCUACACAUUUAAGATT against Gpr44, the z-score was inactive: 0.896.
On to “GGUGUCAGAUAAUGAUUGUTT against 4933426M11Rik”, for which the z-score was inactive: 1.12.
As for CCUAUUAAGCGAUCCAGAUTT against Kcnj16, the figure is inactive: 0.538; as for CCCAUGAAAUUUCUGUGCGTT against Adcy3, inactive: 0.415; as for GGCUGGAGCCUCAAAUAUCTT against Rapsn, inactive: -0.705.
As to GGUGGAAAAUUGAUACAAATT against Stx17, the z-score was inactive: -0.915.
As for GGUUGUUAUUGGAAAAGCATT against Pdpk1, the figure is inactive: -1.31.
“GCUGUAUUUCUGUUAACACTT against 6720425G15Rik”: the z-score is inactive: -0.692.
In the case of “GCACAACCCUAGGCUAUCCTT against 1700091F14Rik”, the z-score is inactive: 0.519.
For GCAGUGUGAAAUCAACUAUTT against Frg1, the z-score is inactive: 0.497.
Consider CCGCCAAGCUCAACUAUCUTT against Top1mt, for which the z-score is inactive: -1.58.
As for GCAUUCACUCCAUCAAUAGTT against LOC433886, the z-score was inactive: -1.09.
Consider GGUUCUGUCUUUUACUUUCTT against Olfr1496, for which the z-score is inactive: 1.
Regarding GGGUUACAAUAACUGGACATT against Ggcx, the z-score was inactive: -2.69.
Take GGUGUCACCAUUUCAGUGGTT against Lbp: the z-score is inactive: 0.901.
Take GGGCCAGACAAUCAAACUGTT against Kcne3: the z-score is inactive: 0.984.
For the sequence CUGUAUGUUAUCUCUACACTT against Olfr1513, the z-score was inactive: -1.49.
As for CCGAUAAUAUCAAUGGAAATT against Thrap4, the figure is inactive: 1.41; as for CCAUAUGUGAGAAACUACATT against AA545217, inactive: -1.9; as for “GGCAAGGACUUCAACAAGATT against 5430407P10Rik”, inactive: -0.0654.
As for GGAAAAACUUCAGGAAGAATT against BC028768, the z-score is inactive: 0.449.
Take GGUAUAGCACCAUCCUGACTT against Olfr651: the z-score is inactive: -0.541.
Turning to GGAUGACAUAUUUUUGGACTT against Mpv17l, the z-score is inactive: 0.441.
With “GGUUCAGCAGUUGUCUGAGTT against 1700011F14Rik”, the z-score was inactive: -0.598.
As for GCUUUGAGAGGUGUUGAUATT against LOC619945, the z-score is inactive: 0.551.
As to “CCCUACGUGACAACCAGCATT against DXBwg1396e”, the z-score was inactive: -1.26.
Consider CCUGGAUCAGCAAUCCACATT against Lpxn, for which the z-score is inactive: 0.103.
As to “GGAGAAUGAAAGGAUUCUGTT against 1700040L02Rik”, the z-score is inactive: 1.52.
GCUACAUCUACCUUAGGCCTT against Olfr1329: the z-score is inactive: -1.27.
On to GCCCAUAUCUUGCCGAAAUTT against Bbp, for which the z-score was inactive: 0.7.
